Earlier results, collected in US20240294526A1, “FUSED TRI-CYCLIC COMPOUND AS A PDE3/PDE4 DUAL INHIBITOR” (CHIA TAI TIANQING PHARMACEUTICAL GROUP CO., LTD., priority 2018, published 2024).
At least one structure is not confirmed: it was looked up by name or label, or the drawing left a doubt.

Test system: PDE4
Details: reported data; cited from earlier work

Row | Compound | inhibitory activity against PDE4
1 | COc1cc2c(cc1OC)-c1c/c(=N\c3c(C)cc(C)cc3C)n(CCNC(N)=O)c(=O)n1CC2 [RPL554] | unsatisfactory
2 | COc1cc2c(cc1OC)-c1cc(Oc3c(C(C)C)cccc3C(C)C)nc(=O)n1CC2 [RPL565] | unsatisfactory
